# Measurements: PubChem BioAssay AID2685 (National Center for Advancing Translational Sciences (NCATS), 2010)
# The list shows a part of the results. These are further read-outs of the screen, such as a control signal, another cell line or another target. No call is given for them. The list favours compounds with an active or inconclusive main result. Words in brackets tell the shape of the fitted curve; partial curves, single points and poor fits give uncertain potencies.
# Assay: qHTS Assay for Lipid Storage Modulators in Drosophila S3 Cells;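 for cell number change: cells counted by Cell Tracker Red CMTPX staining in the red channel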
# Conditions: BODIPY lipid droplet fluorescence, 18-24 h; for cell number change: measured here: cell count max response, cells fed with added oleic acid
# Outline: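 Drosophila S3 cells loaded with oleic acid (400 uM, as added) and compounds at several concentrations; lipid droplets imaged by 488-nm laser-scanning cytometry, 500–530 nm intensity and object ratio to cell channel. Percent activity normalized to 20 uM Triacsin C.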
# [1] = measured here: lipid fluorescence (Fed channel) AC50, cells fed with added oleic acid
# [2] = measured here: cell number channel AC50, cells fed with added oleic acid
SMILES,cell number change [%],AC50 [1],AC50 [2]
COc1ccc(NC(=O)CCCc2nnc3n(C)c(=O)c4sccc4n23)cc1,13.8,"2.59 µM [falling, full curve]",
O=S(=O)(c1cccc2cccnc12)N1CCCCC1,-2.35,"20.6 µM [rising, single point]",
Cc1cc(C)nc(SCC(=O)N2CCOCC2)n1,30,"6.51 µM [falling, single point]",
O=C(c1cc2ccccc2o1)N1CCCC1,16.8,"14.6 µM [rising, partial curve, poor fit]",
O=C(COc1coc(CN2CCc3ccccc3C2)cc1=O)Nc1ccccc1F,-50,"0.116 µM [rising, full curve, poor fit]","8.2 µM [falling, partial curve, poor fit]"
CCOc1ccc(/C=C2\SC(=S)N(Nc3ccccc3)C2=O)cc1OC,9.81,"29.1 µM [rising, single point]",
O=C(CCn1cccc1)N1CCc2ccccc21,25.7,"29.1 µM [falling, single point]","5.8 µM [falling, partial curve]"
CCN1C(=O)[C@H]2[C@@H](c3ccc(-c4ccccc4)cc3)N[C@@](C)(C(=O)OC)[C@H]2C1=O,-1.52,"29.1 µM [falling, single point]",
COc1ccc(NC(=O)CSc2nc3c(c(=O)n(C)c(=O)n3C)n2C)c(OC)c1,8.7,,
Cn1sc(NC(=O)c2cccc(Cl)c2)nc1=O,33.1,,
CCOC(=O)c1ccc(NC(=O)N2CC(C)OC(C)C2)cc1 (centres undefined),-5.43,"0.146 µM [rising, single point]",
O=C(CSc1nc2nn(-c3ccccc3)c(=O)c-2c2n1CCCCC2)NCCc1ccccc1,,"5.8 µM [rising, partial curve, poor fit]",
O=S(=O)(NC1CCN(S(=O)(=O)c2ccc3c(c2)OCCO3)CC1)c1c(F)cccc1F,26.6,"7.31 µM [rising, partial curve]",
CC(C)c1nnc(NC(=O)CCC(=O)Nc2ccc(F)cc2)s1,11.8,"25.9 µM [falling, partial curve, poor fit]",
O=C1NC(=S)N/C1=C/c1cccc([N+](=O)[O-])c1,,"5.17 µM [rising, single point]","2.59 µM [rising, single point]"
O=C(NCc1cc([N+](=O)[O-])ccc1O)c1cccnc1Sc1ccccc1,13.5,,

SMILES,cell number change [%],AC50 [1],AC50 [2]
CC1=C(C(=O)N2CCOCC2)C(c2c(F)cccc2F)NC(=O)N1 (centres undefined),-43.1,,
CN1CC(=O)N(CCOc2ccccc2)C1=O,-25.4,"29.1 µM [falling, single point]","3.66 µM [falling, full curve, poor fit]"
Cc1ccc(C(=O)Nc2ccc(F)cc2F)o1,59.6,,"20.6 µM [rising, single point]"
Cc1cc2c(cc1C)-c1nnc(-c3ccc4ccccc4n3)n1C(C)(C)C2,57.5,"20.6 µM [rising, partial curve]","25.9 µM [rising, single point]"
CS(=O)c1ccccc1-c1nc(-c2ccc(Cl)cc2)no1 (centres undefined),22.4,,
COC(=O)c1ccc(CSc2nc3scc(-c4cccs4)c3c(=O)[nH]2)o1,-20.6,,
CN(C)C(=S)NC(=O)c1cccc(Cl)c1,38.4,"6.51 µM [rising, single point]","4.61 µM [rising, full curve, poor fit]"
COc1ccccc1CNC(=O)C(C)n1nc(C)c2c(C)n(-c3ccccc3)nc2c1=O (centres undefined),,"6.51 µM [falling, partial curve]",
O=C(/C(=C/c1cccnc1)n1ccnc1)c1ccc(Cl)cc1Cl,-38.5,,"5.17 µM [falling, partial curve, poor fit]"
Cc1occc1C(=O)NCc1ccco1,,"29.1 µM [falling, single point]","1.84 µM [rising, single point]"
COc1ccccc1-c1oc2ccccc2c1C#CCCO,-39.4,,"4.11 µM [falling, single point]"
N#Cc1ccccc1OCC(=O)NNC(=O)c1ccncc1,17.9,"32.6 µM [rising, single point]",
C=CCn1c(=NC(=O)c2cc(Cl)sc2Cl)sc2cc(S(N)(=O)=O)ccc21,-19.3,"5.17 µM [falling, single point]",
Cc1c(C)c2c(OCC(=O)NCc3cccnc3)cc3c(c2oc1=O)CCC(C)(C)O3,40.8,,"7.31 µM [rising, partial curve, poor fit]"
O=C(NCc1ccc2c(c1)OCO2)C1CCN(S(=O)(=O)c2cccs2)CC1,-18.5,"18.4 µM [falling, single point]",

# Random excerpt: 2 entries already listed, in no set order.
SMILES,cell number change [%],AC50 [1],AC50 [2]
O=C(CSc1nc2nn(-c3ccccc3)c(=O)c-2c2n1CCCCC2)NCCc1ccccc1,,"5.8 µM [rising, partial curve, poor fit]",
O=C(c1cc2ccccc2o1)N1CCCC1,16.8,"14.6 µM [rising, partial curve, poor fit]",
